## Library screen at single concentrations

From ChEMBL document CHEMBL3988442, “University of Dundee, Small-Polar-MMV Screening Library” (2021).

Each number is a percent effect as filed.
The record does not define 0% and 100%; most values in the screen are far below 50% and negative numbers occur (in some assays of this library far below -100).
The compounds are a random part of those screened.
Two or more numbers in one place are separate tests of the same structure; such repeats can differ widely.

Mtb cholesterol medium: 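Whole-cell growth test on Mycobacterium tuberculosis, read after 4 days in a medium based on cholesterol and the lipid DPPC; the read-out is not stated. Concentration: 50 µM. The record gives no direction; compounds that gave an IC50 in retests scored well above the rest, so higher reads as more growth inhibition. About 69,000 compounds were tested under these conditions; 0.54% (about 370) showed 50% or more at least once.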
Mtb glucose medium: 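Phenotypic screen: M. tuberculosis growth, glucose 7H9 medium, 3 days; the read-out is not stated. Tested at 50 µM. Direction is inferred from retests: higher values go with more growth inhibition. Of about 69,000 compounds tested this way, about 760 (1.1%) reached 50% or more in at least one test.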

Compound	Mtb cholesterol medium	Mtb glucose medium
CS(=O)(=O)CCN(CCCO)C1CCc2ccccc21 (stereo unspecified)	-9.859	15.33
CNS(=O)(=O)c1cccc(C(C)NCc2ccccc2)c1 (stereo unspecified)	6.116 and -12.15	13.19
CN(CC(=O)N1CCN(c2cnccn2)CC1)c1ccc(Cl)cn1	-12.34	-13.15 and 0.2833
CCn1cc(C(=O)Nc2ccc(C)cc2C(=O)OC)cn1	16.39	7.685 and 28.26
CN(CCC(O)c1ccccc1)c1cc(C2CC2)ncn1 (stereo unspecified)	20.23	27.89 and 29.37
Cc1nn(C)c(C)c1CC(=O)N1CCCC1Cn1cccn1 (stereo unspecified)	0.8151	-26.12
c1cnn(CC2CCCN2c2ncnc3c2CCC3)c1 (stereo unspecified)	-18.09	-20.77 and -6.836
Cc1ccc(OC(C)CNC(=O)c2c[nH]nn2)cc1 (stereo unspecified)	0.6963 and -2.592	3.643
CCC(C)(CO)NC(=O)Nc1cc2c(cc1SC)OCCO2 (stereo unspecified)	-6.224	14.27
C[C@@H]1CN(Cc2ccccc2F)CC(C(N)=O)O1 (stereo partly specified)	6.372	14.24 and 9.417
O=C(O)C(F)(F)F.c1nc2c(c(C3CC3)n1)CCN(Cc1ccc3c(c1)OCO3)CC2	4.281	-2.411
Cc1c(CN2CC[C@@H](N3CCC(O)CC3)[C@H](O)C2)[nH]c2ccc(Cl)cc12	24.07	40.64
COCc1ccccc1C(=O)NS(=O)(=O)c1ccc2c(c1)CCC(=O)N2	1.483	3.901
Cc1c(CNC(=O)c2cn(CCC3CCCCN3)nn2)cnn1C (stereo unspecified)	9.438 and 3.05	-13.71
O=C(O)c1nnn(Cc2cccc(C(F)(F)F)c2)c1-c1ccccn1	-12.01 and -10.23	4.352
Cc1cc(SC(C)(C)C)ccc1NC(=O)CNC(N)=O	-0.5304 and -16.07	5.349 and 7.525
N[C@@H]1c2ccccc2C2(CCN(C(=O)c3ccc(Cl)cn3)CC2)[C@H]1O	-0.06317	-20.34
Cc1nn(C)c(C)c1C(C)NCc1ccsc1 (stereo unspecified)	15 and 40.98	-23.48
[H][C@@]12CCN(Cc3cc(C)on3)C[C@]1(C(=O)N1CCOCC1)CCO2	-0.1739	12
CCn1cnnc1CNC(=O)N1CCN(Cc2ccco2)CC1	-6.162	-14.26
COc1ccccc1OCC(=O)NS(=O)(=O)c1ccc(C)s1	-5.474	4.238
CCc1ccc(C(=O)NC2CCN(c3cnn(C)c3)C2=O)o1 (stereo unspecified)	-3.785	14.2
Clc1cccc(N2CCC(NCc3ncc[nH]3)C2)c1 (stereo unspecified)	8.294	15.4
CC(=O)N1Cc2ccnn2CC(C(=O)NCc2cccnc2)C1.O=C(O)C(F)(F)F (stereo unspecified)	-17.81	12.15
COC(=O)N1CC(C)=C(C)CN1C(=O)Nc1ccc(Cl)c(Cl)c1	-21.04	-18.55
COc1ccccc1OC1CN(C(=O)CN(C)Cc2ccncc2)C1	14.93	20.32
Cc1n[nH]c(=O)c2c(NC(=O)CN3CCC(C)CC3)oc(C)c12	0.3279	3.856
CN(C)[C@H]1CCN(c2nc(C(C)(C)C)nc3c2cnn3C)C1	38.17	57.17
Cc1ccc(-c2ncc(C(=O)N3CCCC(CCN)C3)c(O)n2)cc1 (stereo unspecified)	4.826	0.9861 and -11.98
Cc1nnc(N2CC[C@@H](OCC3CC3)[C@@H](Cc3ccccc3)C2)s1.O=C(O)C(F)(F)F	34.21	49.11 and 60.38
CC(C)(C)N1CC(C(=O)N2CCN(CCc3ccccc3)CC2)CC1=O (stereo unspecified)	-26.35	-23.01
Cc1ncsc1CCN(C)C(=O)c1ccc(CN2CCCCC2)cc1	-9.075	-1.457 and -32.55
N#CCCNC(=O)CSc1ccc(F)cc1F	-18.42	0.1163
COc1ccc(C(=O)N2CCCC3(CCCC(=O)N3C)C2)cc1 (stereo unspecified)	-3.8 and -7.48	-32.36
CCC(NCc1ccccc1Cl)c1ccccc1OCC(=O)NC (stereo unspecified)	-14.07	10.14
CCC(C)n1cnc(S(=O)(=O)N(C)c2cccnc2N(C)C)c1 (stereo unspecified)	-6.656	6.648
CSc1ccc(NC(=O)Cn2cc(N)cn2)cc1	-4.265	-14.08
Cc1noc(C)c1CN1CCC2(COCc3cnc(N(C)C)nc32)C1.O=C(O)C(F)(F)F (stereo unspecified)	20.72	-4.104 and -3.235
O=c1ccc2c(n1CC1CC1)CCC(NS(=O)(=O)C1CC1)C2 (stereo unspecified)	-24.84 and -34.58	-44.56
CC(CCc1ccccc1)CC(=O)NC1CCN(CC(N)=O)CC1 (stereo unspecified)	-8.913	-8.062
CCc1nc(C2CCCN(C(=O)c3ccc(OC(C)C)nc3)C2)no1 (stereo unspecified)	1.705	-22.71
Cn1nc(C(=O)N2CCSCC2)cc1NC(=O)c1ccccc1	-35	-3.096
COCC1CC2(CCN(C(=O)c3ccc(C)nc3)CC2)CO1.O=C(O)C(F)(F)F (stereo unspecified)	-2.696	0.3287 and 16.61
COCCN1CCC(NC(=O)C(C)C)CC1	-14.15 and 6.142	-17.96
O=C(NC1CCOC1)c1cccc(S(=O)(=O)NCCCc2ncc[nH]2)c1 (stereo unspecified)	-20.09 and -1.964	-18.73
CS(=O)(=O)N1CCN(C(=O)CN2CCCc3c(F)cc(F)cc32)CC1	-17.71	-6.253
CC(=O)N1CCC2(CC1)CN(CC(C)C)CC21CCNC1=O.O=C(O)C(F)(F)F (stereo unspecified)	2.911	-3.633
O=C(CCn1nc(C(F)(F)F)c(Cl)c1C1CC1)NN1CCOCC1	-1.103	18.89
NC(=O)NC(CC(=O)N1CCc2sccc2C1)c1cccc(Br)c1 (stereo unspecified)	4.675	-9.4
[H][C@@]12C[C@H](c3nnc(C)o3)O[C@@]1([H])CCN(Cc1cc(C)on1)C2	7.134	6.621
CC(C)C(=O)N1CCC(NCc2c(C(C)C)nn(C)c2N(C)C)CC1	-12.04	-7.933 and -7.93
CC(C)c1nnc2n1CCN(CCCS(=O)(=O)c1ccccc1)C2	-1.981	15.26
[H][C@]12CC[C@@]3(N=C(CC)N(C)C3=O)[C@@]1([H])CN(C(=O)NC(C)C)C2	16.69 and -0.9787	4.305
Cc1ccc(C2(O)CCN(Cc3nnc(-c4cccnc4)o3)CC2)nc1	-1.27	17.13
O=C(O)C(F)(F)F.[H][C@@]12CCCO[C@]1([H])[C@H](Oc1ccccn1)CN2S(=O)(=O)CC	-7.5 and -30.38	-14.52 and -62.22
CCc1cn[nH]c1C1CCN(c2cc(C)c3cccc(OC)c3n2)CC1	39.56 and 5.463	53.09
O=C(O)C(F)(F)F.[H][C@@]12COC[C@@H](C(=O)N3CCC(F)CC3)[C@]1([H])CN(CC1CC1)C2	-7.571	0.9782 and -19.51
COCCNC(=O)C(C)S(=O)(=O)c1ccc(OC)cc1 (stereo unspecified)	-39.56	-84.72 and 26.62
CCS(=O)(=O)N1CCC(C(=O)NC(Cc2ccsc2)c2nccs2)CC1 (stereo unspecified)	-17.86	-13.26
COc1cc2c(cc1OC)S(=O)(=O)N(Cc1cnn(C)c1)C2=O	6.526	7.178
CCc1nc(CC(=O)N2CCOCC2c2ncon2)cs1 (stereo unspecified)	-9.353	-11.12
C[C@@H]1CN(C2CCOCC2)C[C@]12CCN(c1cccnc1)C2=O.O=C(O)C(F)(F)F.O=C(O)C(F)(F)F	0.931	-16.7 and 3.971
CC(O)CN1CCN(C(=O)c2ccc(Cn3cccn3)cc2)CC1 (stereo unspecified)	7.196	16.18
O[C@@H]1CN(Cc2cnccn2)C[C@H]1Oc1ccccc1	5.698	2.734
CC[C@@H]1N(Cc2nccs2)CCC[C@]12CCC(=O)N2C.O=C(O)C(F)(F)F	-12.55 and -3.412	-2.046
[H][C@@]12NCCCC[C@]1([H])N(C(=O)c1cccc(OC)c1)C[C@H]2c1ccccc1	9.988	9.502
COCCC(=O)N1CCCN(Cc2nccn2C(C)C)CC1	-24.61	-18.02
Cn1ccc(C(=O)N2CCCN(CCCc3ccccc3)CC2)cc1=O	-30.43	-17.47
Cc1c(C(=O)NC(C)C(C)C)nnn1-c1cccc2c1CCN(C)C2 (stereo unspecified)	8.408	11.3 and 3.424
C=C(C)COc1ccc(C(=O)N(C)C(C)c2ccon2)cc1 (stereo unspecified)	4.095	-18.46
COc1ccc(C)cc1-n1c(COC(C)C)n[nH]c1=O	7.307 and -7.154	6.909 and -2.451
CC(C)(C)C(O)CN1CCN(C(=O)COCC2CC2)CC1 (stereo unspecified)	-11.17	-0.7609
CC(CNC(=O)Nc1cn[nH]c1)N1CCCC1 (stereo unspecified)	3.466	-17.47
COc1cc(F)c(CN2CCN(CC(C)C)C(=O)C2C)cc1OC (stereo unspecified)	-4.668	-9.851
OC(CN1CCOCC1)c1ccc(Br)cc1 (stereo unspecified)	11.65	-3.883
Cc1ncccc1CNCC1COC2(CCCCC2)O1 (stereo unspecified)	3.21	12.97
O=C1CNc2ncnc(Nc3cnn(Cc4ccccc4F)c3)c2N1	-18.1	0.5346
COCCOCC(=O)Nc1ccc(C)cc1Br	-11.69	9.167
O=C(O)[C@@H]1CN(C(=O)CN2CCCCCC2)C[C@H]1c1ccccc1	-3.778	8.278
O=C(N1CCCC1)N1CCC2(CC(=O)N(c3ccc4c(c3)OCO4)C2)C1 (stereo unspecified)	-8.218	-1.61 and -51.64
Cc1cccc(Nc2nccnc2C2CCCN2CC(N)=O)n1 (stereo unspecified)	-5.375	2.212
CCS(=O)(=O)CC(=O)NCC1(c2c(F)cccc2F)CCCC1	-21.78	-24.25
CN(Cc1nccn1C)c1ccc(-c2nccn2C)nn1	-16.36	-3.107
Cc1ncc(C(=O)OCC2CCN(c3ccccc3)C2)s1 (stereo unspecified)	-6.183	-4.819

Repeated from the top, 5 entries:

Compound	Mtb cholesterol medium	Mtb glucose medium
CS(=O)(=O)CCN(CCCO)C1CCc2ccccc21 (stereo unspecified)	-9.859	15.33
CNS(=O)(=O)c1cccc(C(C)NCc2ccccc2)c1 (stereo unspecified)	6.116 and -12.15	13.19
CN(CC(=O)N1CCN(c2cnccn2)CC1)c1ccc(Cl)cn1	-12.34	-13.15 and 0.2833
CCn1cc(C(=O)Nc2ccc(C)cc2C(=O)OC)cn1	16.39	7.685 and 28.26
CN(CCC(O)c1ccccc1)c1cc(C2CC2)ncn1 (stereo unspecified)	20.23	27.89 and 29.37